Patent US20260297165A1, “COMPOSITIONS AND METHODS FOR EXPRESSING THERAPEUTICS” (priority 2023, published 2026)
At least one peptide structure holds a part that was inferred or is arguable (an end, a ring closure or a residue).

Tested on: NIH-3T3 cells
Assay: cGMP production in NIH-3T3 cells
Assay type: cell-based

CC[C@H](C)[C@@H]1NC(=O)[C@H](CCCNC(=N)N)NC(=O)[C@H](CC(=O)O)NC(=O)[C@H](CC(C)C)NC(=O)[C@H](CCCCN)NC(=O)[C@H](CC(C)C)NC(=O)CNC(=O)[C@H](Cc2ccccc2)NC(=O)[C@@H](NC(=O)CNC(=O)[C@H](CCCCN)NC(=O)[C@H](CO)NC(=O)[C@H](CC(C)C)NC(=O)CN)CSSC[C@@H](C(=O)O)NC(=O)CNC(=O)[C@H](CC(C)C)NC(=O)CNC(=O)[C@H](CO)NC(=O)[C@H](CCSC)NC(=O)[C@H](CO)NC(=O)CNC1=O [CNP22]
cGMP production: could stimulate cGMP production
